PubChem BioAssay AID686938, Drosophila RNAi Screening Center, 2013
The screen tested about 23,000 reagents; shown is an unselected part of those that have a named target and a result. Of all reagents, 75 (0.33%) got an active call. 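Raw plate signals without normalisation; calls rest on plate z-scores that were not deposited; ratio present for only 364 wells.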 A number with no mark means an inactive call. Names joined by + are all predicted targets of the reagent. Not stated in the record: the dose of the treatment.

Purpose: 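Looking for CRAC channel components and the factors controlling them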 (primary screen)
Cell system: Drosophila S2R+ cells
Reagents: long dsRNA against Drosophila genes, about 0.25 µg dsRNA per well, roughly 10,000 cells
Time to read-out: 5 days of knock-down before the calcium assay
Conditions: thapsigargin (SERCA pump blocker) to empty calcium stores; entry signal taken 4 min after adding it
Read-out: 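Duplicate raw fluo-4 intensities per well from a plate reader, at rest and four minutes after thapsigargin emptied calcium stores; entry-to-rest ratio filled for only some wells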
Direction: calcium entry signal: higher = stronger calcium signal after store depletion; entry to resting ratio: higher = more calcium entry relative to resting level; resting calcium signal: higher = higher resting calcium signal
Hit rule: 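Called when the plate z-score of the entry-to-rest ratio, mean of duplicates, falls below −3; wells with low overall dye signal (Fmax z below −2) or more than five off-targets excluded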
Calls: active = strongly reduced calcium entry; inactive = no strong reduction

Gene | DRSC id | calcium entry signal, replicate 1 (fluorescence units) | calcium entry signal, replicate 2 (fluorescence units) | entry to resting ratio | resting calcium signal, replicate 1 (fluorescence units) | resting calcium signal, replicate 2 (fluorescence units)
Gyc89Da | DRSC15008 | 2.96e7 | 5.97e7 | – | 1.60e7 | 6.65e7
CG15625 | DRSC00460 | 3.05e7 | 3.75e7 | – | 1.58e7 | 1.72e7
T3dh + pgc | DRSC04659 | 2.99e7 | – | – | 1.44e7 | –
CG15880 | DRSC00474 | 3.30e7 | 3.95e7 | – | 1.58e7 | 1.85e7
Ras85D | DRSC16814 | 2.47e7 | 2.66e7 | – | 1.49e7 | 1.59e7
Lnk | DRSC16729 | 2.28e7 | 2.91e7 | – | 1.11e7 | 1.35e7
Met75Ca + Met75Cb | DRSC09549 | 4.57e7 | 3.36e7 | – | 2.21e7 | 1.74e7
Met75Ca + Met75Cb | DRSC11221 | 3.40e7 | 5.13e7 | – | 1.78e7 | 1.92e7
CG12279 | DRSC14495 | 3.20e7 | 3.84e7 | – | 1.47e7 | 1.79e7
Cpr51A | DRSC05969 | 2.28e7 | 3.73e7 | – | 1.19e7 | 1.59e7
LTV1 | DRSC05951 | 2.98e7 | 3.00e7 | – | 1.59e7 | 1.56e7
spag | DRSC04717 | 3.25e7 | 3.77e7 | – | 1.66e7 | 1.93e7
Yod1 | DRSC10433 | 5.94e7 | 4.76e7 | – | 3.86e7 | 1.78e7
Ac76E | DRSC09642 | 5.13e7 | 3.55e7 | – | 2.38e7 | 1.58e7
Ac76E | DRSC09662 | 3.94e7 | 4.84e7 | – | 1.82e7 | 3.38e7
Fhos | DRSC08943 | 3.39e7 | 4.17e7 | – | 1.78e7 | 1.72e7
Fhos | DRSC10545 | 4.54e7 | 3.18e7 | – | 2.81e7 | 1.40e7
Fhos | DRSC10546 | 4.23e7 | 2.79e7 | – | 2.66e7 | 1.37e7
Fhos | DRSC10547 | 3.33e7 | 4.21e7 | – | 1.60e7 | 1.89e7
CG33791 + CG12105 + CG18170 | DRSC08387 | 3.24e7 | 3.01e7 | – | 1.47e7 | 1.53e7
CG4363 | DRSC04465 | 4.01e7 | 5.87e7 | – | 1.90e7 | 2.41e7
CG42299 + CG42300 | DRSC19680 | 2.52e7 | 3.51e7 | – | 1.38e7 | 1.62e7
CG42299 + CG42300 | DRSC19815 | 2.95e7 | 3.55e7 | – | 1.51e7 | 1.61e7
ninaD | DRSC02886 | 4.84e7 | 3.72e7 | – | 2.24e7 | 1.78e7
CG1572 | DRSC19686 | 2.68e7 | 3.13e7 | – | 1.21e7 | 1.36e7
CG9394 | DRSC04550 | 4.73e7 | 5.13e7 | – | 2.17e7 | 2.16e7
Nepl8 | DRSC02759 | 5.02e7 | 2.95e7 | – | 2.25e7 | 1.51e7
UbcE2H | DRSC18221 | 2.98e7 | 2.25e7 | – | 1.15e7 | 1.05e7
Hmg-2 | DRSC04554 | 4.18e7 | – | – | 2.22e7 | –
ase | DRSC18739 | 4.37e7 | 3.70e7 | 2.4 | 1.79e7 | 1.49e7
CG32845 | DRSC07867 | 2.86e7 | 4.14e7 | – | 1.47e7 | 1.77e7
CG5535 | DRSC10514 | 3.45e7 | 3.92e7 | – | 1.56e7 | 2.69e7
Osi14 | DRSC12368 | 3.33e7 | 1.80e7 | – | 1.55e7 | 9.58e6
Cam | DRSC07353 | 2.55e7 | 2.76e7 | – | 1.49e7 | 1.38e7
Cam | DRSC07354 | 2.62e7 | 4.45e7 | – | 1.76e7 | 2.69e7
eys | DRSC00113 | 2.80e7 | 3.42e7 | – | 1.66e7 | 1.53e7
eys | DRSC00402 | 3.63e7 | 3.96e7 | – | 1.88e7 | 1.72e7
eys | DRSC00403 | 3.27e7 | 3.62e7 | – | 1.55e7 | 1.67e7
eys | DRSC00695 | 4.55e7 | – | – | 2.14e7 | –
CG17683 | DRSC21160 | 3.78e7 | 3.25e7 | – | 2.06e7 | 1.53e7
CG8236 | DRSC16399 | 4.40e7 | 3.98e7 | – | 1.92e7 | 1.76e7
ema | DRSC14536 | 2.85e7 | 6.23e7 | – | 1.56e7 | 5.38e7
lncRNA:CR43302 | DRSC12668 | 3.70e7 | 6.16e7 | – | 1.79e7 | 2.70e7
Targ1 | DRSC11616 | 3.20e7 | 4.98e7 | – | 1.63e7 | 2.25e7
CG31278 | DRSC16051 | 4.45e7 | 3.24e7 | – | 2.26e7 | 1.82e7
sl | DRSC20377 | 4.20e7 | 4.21e7 | – | 1.74e7 | 2.17e7
sl | DRSC21782 | 4.59e7 | 4.54e7 | – | 2.69e7 | 2.16e7
kl-2 | DRSC21136 | 4.55e7 | 4.97e7 | – | 2.20e7 | 1.90e7
lectin-37Db | DRSC03279 | 4.10e7 | 4.96e7 | – | 2.04e7 | 2.19e7
Trm1 | DRSC02951 | 4.12e7 | – | – | 2.07e7 | –
CG18088 | DRSC02654 | 2.62e7 | 3.41e7 | – | 1.29e7 | 1.71e7
CG17826 | DRSC10289 | 3.36e7 | 4.61e7 | – | 1.70e7 | 2.03e7
CG33233 | DRSC08239 | 4.16e7 | 4.43e7 | – | 2.12e7 | 1.96e7
su(r) | DRSC18705 | 3.23e7 | 3.51e7 | – | 1.64e7 | 1.62e7
Tsen34 + Trl | DRSC10014 | 4.32e7 | 6.20e7 | – | 2.10e7 | 2.46e7
CG3702 | DRSC00628 | 4.84e7 | – | – | 2.50e7 | –
Arf1 | DRSC11606 | 2.17e7 | 3.26e7 | – | 1.19e7 | 2.50e7
Lasp | DRSC10379 | 4.38e7 | 6.82e7 | – | 2.30e7 | 2.67e7
